## Primary screen of a compound library

Protein sequences, listed by entry. Tags and fused reporters are not part of them.
UniProt E9BF75, entry or part of it: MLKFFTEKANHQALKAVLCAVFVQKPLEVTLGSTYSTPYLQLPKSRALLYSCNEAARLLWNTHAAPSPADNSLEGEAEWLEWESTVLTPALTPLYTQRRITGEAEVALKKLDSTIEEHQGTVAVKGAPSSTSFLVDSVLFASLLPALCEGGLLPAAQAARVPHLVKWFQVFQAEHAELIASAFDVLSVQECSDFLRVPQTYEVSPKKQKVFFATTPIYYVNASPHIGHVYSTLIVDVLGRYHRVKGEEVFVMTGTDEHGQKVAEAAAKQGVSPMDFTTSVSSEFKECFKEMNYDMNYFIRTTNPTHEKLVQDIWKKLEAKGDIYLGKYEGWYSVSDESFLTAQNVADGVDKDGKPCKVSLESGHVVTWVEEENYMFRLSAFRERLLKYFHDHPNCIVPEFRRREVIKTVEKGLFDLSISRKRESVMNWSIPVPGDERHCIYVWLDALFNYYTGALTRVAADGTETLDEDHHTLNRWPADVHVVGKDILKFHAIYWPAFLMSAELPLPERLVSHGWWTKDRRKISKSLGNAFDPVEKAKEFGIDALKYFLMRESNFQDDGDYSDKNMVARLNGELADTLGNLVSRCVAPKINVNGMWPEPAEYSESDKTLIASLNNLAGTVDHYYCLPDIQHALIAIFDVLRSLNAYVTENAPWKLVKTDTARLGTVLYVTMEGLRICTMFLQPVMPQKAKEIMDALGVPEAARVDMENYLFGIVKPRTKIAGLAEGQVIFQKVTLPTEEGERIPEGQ

Measurements from “University of Dundee, Small-Polar-MMV Screening Library” (2021), ChEMBL document CHEMBL3988442.

A: 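Primary screen of methionyl-tRNA synthetase; the read-out is not stated. Target: Methionyl-tRNA synthetase (putative), Leishmania donovani (UniProt E9BF75). The test concentration is not given. The values are filed as inhibition. Size under these conditions: about 68,000 compounds, about 24 of them at 50% or above in at least one test.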
B: 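Assay on Mycobacterium tuberculosis, filed only as a heat shock assay from Cornell; the read-out is not stated. The concentration is filed as 10 mM, unlikely as a test dose, so the dose is not known. Direction is inferred from retests: higher values go with stronger inhibition. About 69,000 compounds were tested under these conditions; 1.4% (about 930) showed 50% or more at least once.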

Results are percentages, as filed.
The controls that fix the scale are not given in the record; negative values are as filed.
Compounds were drawn at random from those tested, without regard to their results.
A dash means the value is not listed here; it may have been measured.

{"smiles": "Cc1ccc(C(=O)O)cc1CNC(=O)CN1CC[C@](C)(O)C(C)(C)C1", "A": 6.162, "B": -10.02}
{"smiles": "CN(C)C(=O)NC1COC2(CCN(Cc3ccc(Cl)c(F)c3)CC2)C1", "stereo": "stereo not shown", "A": 13.02}
{"smiles": "CCC1CNCc2cc3c(OC)ccc(OC)c3nc2O1", "stereo": "stereo not shown", "A": 19.18, "B": -6.118}
{"smiles": "c1csc(CN2C[C@H]3CCC[C@@]3(COCC3CCOCC3)C2)n1", "A": 17.65}
{"smiles": "Cc1ccc(C2CCCCCN2Cc2cn(C)nc2C)s1", "stereo": "stereo not shown", "A": 15.69, "B": 11.6}
{"smiles": "Cl.Cl.OC(CN1CCN(Cc2cccc(F)c2)CC1)C1CC1", "stereo": "stereo not shown", "B": -27.53}
{"smiles": "CS(=O)(=O)CCNC(=O)Nc1sc2ccccc2c1Cl", "A": 19.03, "B": 26.55}
{"smiles": "CCC(C)(O)CNC(=O)Nc1ccc(C)cc1Br", "stereo": "stereo not shown", "A": 13.4, "B": 11.25}
{"smiles": "Cc1ccc(C(=O)NCCCn2cccn2)c(=O)[nH]1", "A": 14.65, "B": -10.38}
{"smiles": "Cc1cc(C)n(-c2ccc(N3CCC4(CC3)OCCO4)nc2)n1", "A": 16.85, "B": -47.26}
{"smiles": "N#CC1COCCN1S(=O)(=O)c1ccc2c(c1)CCC2", "stereo": "stereo not shown", "A": 7.692, "B": -33.73}
{"smiles": "Cc1ccc(NC(C)C(=O)NCc2cccs2)cc1C", "stereo": "stereo not shown", "A": 5.419, "B": -3.928}
{"smiles": "CN(Cc1ccc(Cl)c(Cl)c1)C(=O)CNC(N)=O", "A": 12.68, "B": 2.184}
{"smiles": "O=C(O)c1ccc(CN2CCCC(Cc3ccn[nH]3)C2)cc1", "stereo": "stereo not shown", "A": 8.723, "B": -6.309}
{"smiles": "CC(c1ccc(F)cc1F)N1CCN(CCC(=O)O)CC1", "stereo": "stereo not shown", "A": 12.47}
{"smiles": "Cc1noc(C)c1CN1CCn2c(CN3CCN(C)CC3)cnc2C1.O=C(O)C(F)(F)F.O=C(O)C(F)(F)F.O=C(O)C(F)(F)F", "B": -24.96}
{"smiles": "O=C(O)c1ccccc1-c1c(-c2ccccc2)ncn1C[C@H]1CCCN1", "A": 15.97, "B": -16.32}
{"smiles": "Cc1nc(CN2CCCC(N(C)Cc3nccn3C)C2)no1", "stereo": "stereo not shown", "A": 2.023, "B": -21.78}
{"smiles": "CCOc1ccc(CC(=O)N2CCN(c3nccn3CC)CC2)cc1.Cl", "B": -14.36}
{"smiles": "CN(C)C(=O)C1CN(Cc2ccsc2)Cc2ccnn2C1.O=C(O)C(F)(F)F", "stereo": "stereo not shown", "B": -18.47}
{"smiles": "Cn1cccc1C(=O)N1CCC2(CCN(C(=O)c3cccnc3)C2)CC1", "A": 16.54}
{"smiles": "O=C(Cc1cccs1)N1C[C@H]2CN(CC3CCCO3)CC[C@H]2C1", "stereo": "stereo partly shown", "A": 18.75}
{"smiles": "Cc1cc(C(=O)N2CCC3(CC2)CC(c2cccnc2)C(=O)N3)no1.O=C(O)C(F)(F)F", "stereo": "stereo not shown", "B": -21.08}
{"smiles": "O=C(O)C(F)(F)F.O=C(c1ccoc1)N1CCOCC2(CCN(C3CCOCC3)C2)C1", "stereo": "stereo not shown", "B": -28.96}
{"smiles": "CN(C)c1ncccc1CNS(=O)(=O)c1cc(F)cc(F)c1", "A": 23.3, "B": -5.075}
{"smiles": "CN(Cc1ccco1)c1ccc(C(=O)NCCCc2ccccn2)cn1", "A": 5.385, "B": -12.29}
{"smiles": "O=C(NCCc1noc(C2CCCC2)n1)c1cn2ccsc2n1", "A": 9.207, "B": 14.58}
{"smiles": "CCCN1CCN(C(=O)c2cccc3cccnc23)[C@H]2CS(=O)(=O)C[C@H]21", "A": -1.648}
{"smiles": "CCOC1CC2(CCN(c3cnccn3)CC2)c2ccccc21", "stereo": "stereo not shown", "A": 16.67, "B": -0.7353}
{"smiles": "O=C(NCC1CCCCC1)N1C[C@@H]2C[C@H]1CN2", "A": 8.333}
{"smiles": "Cc1cccc(CN2CCc3c(nc(N4CCCCC4C)[nH]c3=O)C2)n1", "stereo": "stereo not shown", "A": 20.21, "B": 11.77}

4 of the entries, repeated:

SMILES	A	B
c1csc(CN2C[C@H]3CCC[C@@]3(COCC3CCOCC3)C2)n1	17.65%	-
O=C(O)c1ccc(CN2CCCC(Cc3ccn[nH]3)C2)cc1 (stereo not shown)	8.723%	-6.309%
CN(Cc1ccc(Cl)c(Cl)c1)C(=O)CNC(N)=O	12.68%	2.184%
Cc1ccc(C2CCCCCN2Cc2cn(C)nc2C)s1 (stereo not shown)	15.69%	11.6%